Results: the supplement of paper PMC9015667
Where a name gives a salt, the structure may show the parent alone. The list shows a part of the results. Most values come without repeats; read them as rough.

How the values were obtained:
Experiment in all cases: reduction in cell viability relative to untreated/vehicle; higher = more growth inhibition
Settings in all cases: 200 nM; 72 h
M229P = tested on: M229P (parental melanoma line)
M229R = tested on: M229R (matched melanoma line resistant to BRAF inhibitors)
M238P = tested on: M238P (parental melanoma line)
M238R = tested on: M238R (matched melanoma line resistant to BRAF inhibitors)
M249P = tested on: M249P (parental melanoma line)
M249R = tested on: M249R (matched melanoma line resistant to BRAF inhibitors)
UACC62P = tested on: UACC62P (parental melanoma line)
UACC62R = tested on: UACC62R (matched melanoma line resistant to BRAF inhibitors)

Measured: reduction in cell viability

Cn1c(=O)c2c(ncn2CC(O)CO)n(C)c1=O (stereo not drawn) [Dyphylline]
7.45%: M249R
1.71%: UACC62P
< 0%: M229P | M229R | M238P | M238R | M249P | UACC62R

C[C@@H](O)[C@H]1C(=O)N2C(C(=O)O)=C(S[C@@H]3CN[C@H](C(=O)N(C)C)C3)[C@H](C)[C@H]12 [Meropenem]
< 0%: M229P | M229R | M238P | M238R | M249P | M249R | UACC62P | UACC62R

CCCNS(=O)(=O)Nc1ncnc(OCCOc2ncc(Br)cn2)c1-c1ccc(Br)cc1 [Macitentan]
3.59%: M249R
< 0%: M229P | M229R | M238P | M238R | M249P | UACC62P | UACC62R

CC(C)C[C@H](NC(=O)[C@@H](NC(=O)c1cccc(-c2ccccc2)n1)[C@@H](C)O)B(O)O [Delanzomib]
89.4%: UACC62P
92.6%: M238R
84.8%: UACC62R
89.6%: M238P
90.9%: M229P
91.6%: M249P
90.5%: M249R
83.6%: M229R

O=C(O)CCCc1c[nH]c2ccccc12 [3-indolebutyric acid]
< 0%: M229P | M229R | M238P | M238R | M249P | M249R | UACC62R
1.46%: UACC62P

Cc1ccccc1C(=O)c1ccc(Nc2ccc(Br)cc2N)cc1Cl
6.15%: M249P
< 0%: M229P | M229R | M238P | M238R | M249R | UACC62R
0.47%: UACC62P

CC(C)(C)c1cnc(CSc2cnc(NC(=O)C3CCNCC3)s2)o1
90.3%: UACC62P
98.7%: M249R
94.4%: M249P
58.6%: M238R
57.2%: M229P
60.8%: M229R
84.2%: UACC62R
102%: M238P

COC(=O)C1=C(C)NC(C)=C(C(=O)OCCN2CCN(C(c3ccccc3)c3ccccc3)CC2)C1c1cccc([N+](=O)[O-])c1 (stereo not drawn) [Manidipine dihydrochloride]
< 0%: M229P | M229R | M238P | M238R | M249P | M249R | UACC62R
12%: UACC62P

O=C(c1ccccc1)c1ccc2n1CCC2C(=O)O (stereo not drawn) [Ketorolac]
< 0%: M229P | M229R | M238P | M238R | M249P | M249R | UACC62P | UACC62R

CC[C@]12C=CCN3CC[C@@]4(c5cc([C@@]6(C(=O)OC)C[C@@H]7C[C@@H](C(C)(F)F)CN(Cc8c6[nH]c6ccccc86)C7)c(OC)cc5N(C)[C@H]4[C@@](O)(C(=O)OC)[C@@H]1OC(C)=O)[C@@H]32 [Vinflunine]
44.6%: UACC62P
59.3%: M238P
70.1%: M238R
41.3%: M249R
45.7%: M229R
29.7%: M249P
26.9%: M229P
74.5%: UACC62R

CC(=O)SCC(Cc1ccccc1)C(=O)NCC(=O)OCc1ccccc1 (stereo not drawn) [Racecadotril]
< 0%: M229P | M229R | M238P | M238R | M249P | M249R | UACC62P | UACC62R

COc1cc2nccc(Oc3ccc(NC(=O)C4(C(=O)Nc5ccc(F)cc5)CC4)cc3)c2cc1OC
< 0%: M229P | M229R | M238P | M238R | M249P | M249R | UACC62P | UACC62R

CCOC(=O)C(C)(C)Oc1ccc(Cl)cc1 [Clofibrate]
< 0%: M229P | M229R | M238P | M238R | M249P | M249R | UACC62P | UACC62R

CCCC1O[C@@H]2C[C@H]3[C@@H]4CCC5=CC(=O)C=C[C@]5(C)[C@H]4[C@@H](O)C[C@]3(C)[C@]2(C(=O)CO)O1 (stereo partly drawn) [Budesonide]
< 0%: M229P | M229R | M238P | M238R | M249P | M249R | UACC62P | UACC62R

O=c1cc(N2CCOCC2)oc2c(-c3ccccc3)cccc12
< 0%: M229P | M229R | M238P | M238R | M249P | M249R | UACC62P | UACC62R

CN(CC(=O)N(Cc1ccc(C2CCCCC2)cc1)c1ccc(C(=O)O)c(O)c1)S(=O)(=O)c1c(F)c(F)c(F)c(F)c1F
< 0%: M229P | M229R | M238P | M238R | M249P | M249R | UACC62R
0.24%: UACC62P

CCS(=O)(=O)c1cccc(-c2cc(C(=O)NC3CCN(C)CC3)c(C)c3[nH]c4ncc(C)cc4c23)c1
51%: M238P
5.16%: M229P
12.8%: M249P
79.2%: M238R
62.6%: UACC62R
27.9%: M229R
13.4%: M249R
33.7%: UACC62P

CCn1c(C(=O)N(C2CC2)C2CC2)cc2c3c(ncn3C)c(Nc3cc(C)n(C)n3)nc21
3.81%: M249R
< 0%: M229P | M229R | M238P | M238R | M249P | UACC62P | UACC62R

COc1ccccc1[C@H](c1cccc2ccccc12)[C@@](C)(C#N)C(=O)N1CCC(c2cccc(C(F)(F)F)c2)CC1
< 0%: M229P | M229R | M238P | M238R | M249P | M249R | UACC62P | UACC62R

CC1(C)CCC(C)(C)c2cc(NC(=O)c3ccc(C(=O)O)cc3)ccc21 [Tamibarotene]
< 0%: M229P | M229R | M238P | M238R | M249P | M249R | UACC62P | UACC62R

COC(=O)C1=C(C)NC(C)=C(C(=O)OCCCN2CCC(c3ccccc3)(c3ccccc3)CC2)[C@H]1c1cccc([N+](=O)[O-])c1 [Niguldipine]
< 0%: M229P | M238P | M238R | M249P | M249R | UACC62P | UACC62R
1.09%: M229R

COCCCOc1cc(C[C@@H](C[C@H](N)[C@@H](O)C[C@H](C(=O)NCC(C)(C)C(N)=O)C(C)C)C(C)C)ccc1OC [Aliskiren hemifumarate]
< 0%: M229P | M229R | M238P | M238R | M249P | M249R | UACC62P | UACC62R

CCc1ccc(OCc2ccccc2C(=O)Nc2ccc3nc(C)cc(N)c3c2)cc1
< 0%: M229P | M229R | M238P | M238R | M249P | UACC62P | UACC62R
5.69%: M249R

COc1ccc(-c2c(-c3ccc(O)cc3O)n[nH]c2C)cc1
< 0%: M229P | M229R | M238P | M238R | M249P | M249R | UACC62R
0.92%: UACC62P

O=C(NC(Cc1cc(=O)[nH]c2ccccc12)C(=O)O)c1ccc(Cl)cc1 (stereo not drawn) [Rebamipide]
2.14%: UACC62P
< 0%: M229P | M229R | M238P | M238R | M249P | M249R | UACC62R

CC(C)C[C@H](NC(=O)[C@H](Cc1ccccc1)NC(=O)c1cnccn1)B(O)O [Bortezomib]
89.8%: M249P
92.5%: UACC62P
85.8%: M229R
88.2%: M229P
86.3%: UACC62R
86.2%: M238P
85.9%: M249R
92%: M238R

Cc1cn[nH]c1 [Fomepizole]
< 0%: M229P | M229R | M238P | M238R | M249P | M249R | UACC62P | UACC62R

Oc1c2ccccc2c2c3c(cccc13)N=N2
< 0%: M229P | M229R | M238P | M238R | M249P | M249R | UACC62P | UACC62R

Cc1c2oc3c(C)ccc(C(=O)N[C@@H]4C(=O)N[C@H](C(C)C)C(=O)N5CCC[C@H]5C(=O)N(C)CC(=O)N(C)[C@@H](C(C)C)C(=O)O[C@@H]4C)c3nc-2c(C(=O)N[C@@H]2C(=O)N[C@H](C(C)C)C(=O)N3CCC[C@H]3C(=O)N(C)CC(=O)N(C)[C@@H](C(C)C)C(=O)O[C@@H]2C)c(N)c1=O [Actinomycin D]
83%: UACC62R
75.9%: UACC62P
69.7%: M229R
83.1%: M249R
77.8%: M238P
86.1%: M249P
63.5%: M238R
79.6%: M229P

CO[C@@H](C(=O)N1Cc2[nH]nc(NC(=O)c3ccc(N4CCN(C)CC4)cc3)c2C1)c1ccccc1
15.4%: M249R
9.7%: M229R
15.6%: UACC62P
< 0%: M229P
23.7%: M238P
59.8%: UACC62R
13.6%: M238R | M249P

CC(=O)Oc1ccccc1C(=O)Nc1ncc([N+](=O)[O-])s1 [Nitazoxanide]
< 0%: M229P | M229R | M238P | M238R | M249P | M249R | UACC62P | UACC62R

NCc1c[nH]c(=S)n1[C@H]1CCc2c(F)cc(F)cc2C1 [Nepicastat hydrochloride]
3.73%: M229R
< 0%: M229P | M238P | M238R | M249P | M249R | UACC62P | UACC62R

Cc1ccc(C)c(OCCCC(C)(C)C(=O)O)c1 [Gemfibrozil]
< 0%: M229P | M229R | M238P | M238R | M249P | M249R | UACC62P | UACC62R

Nc1nccc(-c2ccc3noc(-c4ccc(Cl)cc4)c3c2)n1 [Pim 1 inhibitor 2]
< 0%: M229P | M229R | M238P | M238R | M249P | M249R | UACC62P | UACC62R

Compounds from the list above that contain a nitro group on carbon, in the order listed:
COC(=O)C1=C(C)NC(C)=C(C(=O)OCCN2CCN(C(c3ccccc3)c3ccccc3)CC2)C1c1cccc([N+](=O)[O-])c1 (stereo not drawn) [Manidipine dihydrochloride]
< 0%: M229P | M229R | M238P | M238R | M249P | M249R | UACC62R
12%: UACC62P

COC(=O)C1=C(C)NC(C)=C(C(=O)OCCCN2CCC(c3ccccc3)(c3ccccc3)CC2)[C@H]1c1cccc([N+](=O)[O-])c1 [Niguldipine]
< 0%: M229P | M238P | M238R | M249P | M249R | UACC62P | UACC62R
1.09%: M229R

CC(=O)Oc1ccccc1C(=O)Nc1ncc([N+](=O)[O-])s1 [Nitazoxanide]
< 0%: M229P | M229R | M238P | M238R | M249P | M249R | UACC62P | UACC62R

More structures follow:

COc1cc(C[C@@H](CO)[C@H](CO)Cc2ccc(O)c(OC)c2)ccc1O [Secoisolariciresinol]
< 0%: M229P | M229R | M238P | M238R | M249P | M249R | UACC62P | UACC62R

O=c1cc(-c2ccccc2)oc2cc(O)c(O)c(O)c12 [Baicalein]
< 0%: M229P | M229R | M238P | M238R | M249P | M249R | UACC62R
0.03%: UACC62P

COc1cc(/C=C/C(=O)CC(=O)/C=C/c2ccc(O)c(OC)c2)ccc1O [Curcumin]
6.99%: M229R
< 0%: M229P | M238P | M238R | M249P | M249R | UACC62P | UACC62R

Cc1ccc(NC(=O)Nc2cc(C(F)(F)F)ccc2F)cc1Nc1ccc2c(c1)NC(=O)/C2=C\c1ccc[nH]1
< 0%: M229P | M229R | M238P | M238R | M249P | UACC62P | UACC62R
0.14%: M249R

OCCNC1CCCc2c1[nH]c1ccc(-c3ccccc3)cc21 (stereo not drawn)
20.1%: M229R
< 0%: M229P | M238P | M238R | M249P | M249R | UACC62P | UACC62R

Nc1nccc(Oc2ccc(NC(=O)c3c[nH]cc(-c4ccc(F)cc4)c3=O)cc2F)c1Cl
< 0%: M229P | M229R | M238P | M238R | M249P | M249R | UACC62P | UACC62R

COc1ccnc(C[S+]([O-])c2nc3cc(OC(F)F)ccc3[nH]2)c1OC (stereo not drawn) [Pantoprazole]
< 0%: M229P | M229R | M238P | M238R | M249P | M249R | UACC62P | UACC62R
